# From the supplement of paper PMC10032668
# Chains of the proteins cited; added tags and fusions are not shown.
# PIN4, Q9Y237, UniProt Q9Y237, whole entry: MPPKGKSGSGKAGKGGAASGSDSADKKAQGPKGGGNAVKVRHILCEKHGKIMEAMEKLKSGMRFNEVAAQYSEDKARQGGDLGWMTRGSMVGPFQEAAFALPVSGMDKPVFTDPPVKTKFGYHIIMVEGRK
# UBE2I, P63279, UniProt P63279, whole entry: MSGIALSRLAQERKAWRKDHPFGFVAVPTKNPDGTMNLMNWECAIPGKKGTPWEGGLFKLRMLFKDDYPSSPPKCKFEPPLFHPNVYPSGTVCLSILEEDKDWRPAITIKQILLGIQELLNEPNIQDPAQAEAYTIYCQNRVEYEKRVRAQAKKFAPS
# UFM1, P61960, UniProt P61960, whole entry: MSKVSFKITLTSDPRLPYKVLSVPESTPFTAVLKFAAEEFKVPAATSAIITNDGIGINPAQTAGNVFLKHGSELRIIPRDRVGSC
# APEX1, P27695, UniProt P27695, whole entry: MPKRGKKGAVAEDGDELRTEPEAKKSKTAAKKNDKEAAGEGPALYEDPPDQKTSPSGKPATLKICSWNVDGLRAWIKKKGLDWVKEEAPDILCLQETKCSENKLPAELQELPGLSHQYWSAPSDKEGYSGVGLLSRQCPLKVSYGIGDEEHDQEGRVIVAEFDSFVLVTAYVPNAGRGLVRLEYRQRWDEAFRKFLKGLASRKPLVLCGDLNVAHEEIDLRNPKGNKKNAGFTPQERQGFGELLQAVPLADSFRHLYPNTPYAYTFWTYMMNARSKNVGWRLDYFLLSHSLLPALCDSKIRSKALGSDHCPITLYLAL
# BUB1B, O60566, UniProt O60566, whole entry: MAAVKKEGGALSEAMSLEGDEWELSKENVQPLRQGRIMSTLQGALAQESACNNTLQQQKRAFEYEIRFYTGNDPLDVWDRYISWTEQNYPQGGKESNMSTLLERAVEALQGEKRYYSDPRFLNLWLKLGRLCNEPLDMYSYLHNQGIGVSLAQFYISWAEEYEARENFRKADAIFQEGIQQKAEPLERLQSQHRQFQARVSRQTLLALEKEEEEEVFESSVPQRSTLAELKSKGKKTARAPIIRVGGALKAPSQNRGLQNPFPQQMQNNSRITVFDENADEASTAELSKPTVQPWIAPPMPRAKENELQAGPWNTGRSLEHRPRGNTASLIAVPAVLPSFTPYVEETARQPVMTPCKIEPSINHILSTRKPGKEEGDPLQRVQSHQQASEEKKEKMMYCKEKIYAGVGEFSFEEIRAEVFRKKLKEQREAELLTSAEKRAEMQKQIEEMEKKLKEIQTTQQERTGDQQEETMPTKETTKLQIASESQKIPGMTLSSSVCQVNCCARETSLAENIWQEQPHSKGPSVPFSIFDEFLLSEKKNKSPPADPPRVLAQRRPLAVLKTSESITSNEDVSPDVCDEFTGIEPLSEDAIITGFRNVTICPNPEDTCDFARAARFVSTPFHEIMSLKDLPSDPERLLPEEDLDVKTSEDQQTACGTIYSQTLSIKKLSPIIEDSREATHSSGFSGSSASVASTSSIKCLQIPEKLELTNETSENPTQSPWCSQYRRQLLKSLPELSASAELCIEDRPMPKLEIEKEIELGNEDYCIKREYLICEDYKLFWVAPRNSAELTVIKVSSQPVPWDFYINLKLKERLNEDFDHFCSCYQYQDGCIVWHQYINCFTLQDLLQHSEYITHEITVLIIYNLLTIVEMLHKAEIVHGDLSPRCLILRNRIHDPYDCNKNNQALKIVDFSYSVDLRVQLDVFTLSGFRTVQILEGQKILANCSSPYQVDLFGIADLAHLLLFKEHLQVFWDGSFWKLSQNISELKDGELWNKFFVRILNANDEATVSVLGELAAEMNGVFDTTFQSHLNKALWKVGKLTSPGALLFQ
# DCTN1, Q14203, UniProt Q14203, whole entry: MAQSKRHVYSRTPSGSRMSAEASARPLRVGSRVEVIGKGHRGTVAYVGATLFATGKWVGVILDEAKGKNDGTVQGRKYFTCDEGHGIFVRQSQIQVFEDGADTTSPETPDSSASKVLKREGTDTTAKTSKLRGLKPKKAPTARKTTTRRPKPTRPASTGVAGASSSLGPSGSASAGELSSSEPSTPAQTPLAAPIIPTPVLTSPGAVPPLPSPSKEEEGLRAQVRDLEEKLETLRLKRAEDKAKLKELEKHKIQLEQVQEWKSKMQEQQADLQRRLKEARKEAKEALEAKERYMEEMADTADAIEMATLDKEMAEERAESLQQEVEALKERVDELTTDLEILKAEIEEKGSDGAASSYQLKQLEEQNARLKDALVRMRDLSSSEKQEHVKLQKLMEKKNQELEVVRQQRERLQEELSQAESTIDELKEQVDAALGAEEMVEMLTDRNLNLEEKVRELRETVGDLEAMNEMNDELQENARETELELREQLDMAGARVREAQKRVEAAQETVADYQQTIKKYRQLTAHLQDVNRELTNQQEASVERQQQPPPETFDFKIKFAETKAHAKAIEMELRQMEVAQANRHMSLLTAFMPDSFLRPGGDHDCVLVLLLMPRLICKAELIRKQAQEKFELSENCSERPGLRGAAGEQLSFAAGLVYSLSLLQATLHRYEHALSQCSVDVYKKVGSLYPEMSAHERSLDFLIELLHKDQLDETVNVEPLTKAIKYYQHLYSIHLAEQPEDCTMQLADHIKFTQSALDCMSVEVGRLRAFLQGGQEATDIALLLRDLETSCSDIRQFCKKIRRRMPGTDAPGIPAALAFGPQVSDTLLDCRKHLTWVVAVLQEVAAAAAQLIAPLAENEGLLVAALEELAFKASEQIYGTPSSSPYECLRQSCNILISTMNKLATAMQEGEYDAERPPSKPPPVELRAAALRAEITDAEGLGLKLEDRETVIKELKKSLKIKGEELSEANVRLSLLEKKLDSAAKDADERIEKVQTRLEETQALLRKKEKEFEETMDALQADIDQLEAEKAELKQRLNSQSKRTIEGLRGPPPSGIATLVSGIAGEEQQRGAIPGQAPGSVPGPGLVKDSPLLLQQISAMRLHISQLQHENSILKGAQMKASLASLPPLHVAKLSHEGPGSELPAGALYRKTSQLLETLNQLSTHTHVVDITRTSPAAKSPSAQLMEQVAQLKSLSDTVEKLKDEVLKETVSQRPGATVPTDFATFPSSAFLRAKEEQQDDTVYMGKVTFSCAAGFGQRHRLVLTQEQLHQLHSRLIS
# GPN1, Q9HCN4, UniProt Q9HCN4, whole entry: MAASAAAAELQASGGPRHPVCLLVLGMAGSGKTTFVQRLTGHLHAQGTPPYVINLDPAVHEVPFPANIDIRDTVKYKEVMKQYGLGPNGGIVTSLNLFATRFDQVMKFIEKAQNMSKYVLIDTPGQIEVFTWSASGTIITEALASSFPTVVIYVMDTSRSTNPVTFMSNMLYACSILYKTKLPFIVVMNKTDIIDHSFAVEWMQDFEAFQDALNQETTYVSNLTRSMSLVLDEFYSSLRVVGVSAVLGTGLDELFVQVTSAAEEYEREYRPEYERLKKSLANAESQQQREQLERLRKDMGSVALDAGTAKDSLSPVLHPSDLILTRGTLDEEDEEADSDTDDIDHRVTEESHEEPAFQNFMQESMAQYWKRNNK
# HIST1H1E, P10412, UniProt P10412, whole entry: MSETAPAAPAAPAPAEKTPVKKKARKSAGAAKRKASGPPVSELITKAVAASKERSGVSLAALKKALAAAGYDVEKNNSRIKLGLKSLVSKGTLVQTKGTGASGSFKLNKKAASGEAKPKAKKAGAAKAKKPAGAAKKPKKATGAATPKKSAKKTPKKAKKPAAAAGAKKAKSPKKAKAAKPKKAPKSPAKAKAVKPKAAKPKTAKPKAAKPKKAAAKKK
# MAPK1, P28482, UniProt P28482, whole entry: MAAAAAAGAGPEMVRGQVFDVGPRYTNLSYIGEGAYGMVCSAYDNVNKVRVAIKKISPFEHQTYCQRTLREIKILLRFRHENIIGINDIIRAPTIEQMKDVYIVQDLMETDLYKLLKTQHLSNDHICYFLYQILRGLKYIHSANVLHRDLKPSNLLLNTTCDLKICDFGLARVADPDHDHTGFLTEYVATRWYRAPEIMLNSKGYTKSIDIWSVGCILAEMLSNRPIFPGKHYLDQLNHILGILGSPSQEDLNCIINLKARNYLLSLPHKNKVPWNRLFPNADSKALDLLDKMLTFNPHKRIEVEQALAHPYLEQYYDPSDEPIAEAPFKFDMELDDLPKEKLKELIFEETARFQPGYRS
# MYH9, P35579, UniProt P35579, whole entry: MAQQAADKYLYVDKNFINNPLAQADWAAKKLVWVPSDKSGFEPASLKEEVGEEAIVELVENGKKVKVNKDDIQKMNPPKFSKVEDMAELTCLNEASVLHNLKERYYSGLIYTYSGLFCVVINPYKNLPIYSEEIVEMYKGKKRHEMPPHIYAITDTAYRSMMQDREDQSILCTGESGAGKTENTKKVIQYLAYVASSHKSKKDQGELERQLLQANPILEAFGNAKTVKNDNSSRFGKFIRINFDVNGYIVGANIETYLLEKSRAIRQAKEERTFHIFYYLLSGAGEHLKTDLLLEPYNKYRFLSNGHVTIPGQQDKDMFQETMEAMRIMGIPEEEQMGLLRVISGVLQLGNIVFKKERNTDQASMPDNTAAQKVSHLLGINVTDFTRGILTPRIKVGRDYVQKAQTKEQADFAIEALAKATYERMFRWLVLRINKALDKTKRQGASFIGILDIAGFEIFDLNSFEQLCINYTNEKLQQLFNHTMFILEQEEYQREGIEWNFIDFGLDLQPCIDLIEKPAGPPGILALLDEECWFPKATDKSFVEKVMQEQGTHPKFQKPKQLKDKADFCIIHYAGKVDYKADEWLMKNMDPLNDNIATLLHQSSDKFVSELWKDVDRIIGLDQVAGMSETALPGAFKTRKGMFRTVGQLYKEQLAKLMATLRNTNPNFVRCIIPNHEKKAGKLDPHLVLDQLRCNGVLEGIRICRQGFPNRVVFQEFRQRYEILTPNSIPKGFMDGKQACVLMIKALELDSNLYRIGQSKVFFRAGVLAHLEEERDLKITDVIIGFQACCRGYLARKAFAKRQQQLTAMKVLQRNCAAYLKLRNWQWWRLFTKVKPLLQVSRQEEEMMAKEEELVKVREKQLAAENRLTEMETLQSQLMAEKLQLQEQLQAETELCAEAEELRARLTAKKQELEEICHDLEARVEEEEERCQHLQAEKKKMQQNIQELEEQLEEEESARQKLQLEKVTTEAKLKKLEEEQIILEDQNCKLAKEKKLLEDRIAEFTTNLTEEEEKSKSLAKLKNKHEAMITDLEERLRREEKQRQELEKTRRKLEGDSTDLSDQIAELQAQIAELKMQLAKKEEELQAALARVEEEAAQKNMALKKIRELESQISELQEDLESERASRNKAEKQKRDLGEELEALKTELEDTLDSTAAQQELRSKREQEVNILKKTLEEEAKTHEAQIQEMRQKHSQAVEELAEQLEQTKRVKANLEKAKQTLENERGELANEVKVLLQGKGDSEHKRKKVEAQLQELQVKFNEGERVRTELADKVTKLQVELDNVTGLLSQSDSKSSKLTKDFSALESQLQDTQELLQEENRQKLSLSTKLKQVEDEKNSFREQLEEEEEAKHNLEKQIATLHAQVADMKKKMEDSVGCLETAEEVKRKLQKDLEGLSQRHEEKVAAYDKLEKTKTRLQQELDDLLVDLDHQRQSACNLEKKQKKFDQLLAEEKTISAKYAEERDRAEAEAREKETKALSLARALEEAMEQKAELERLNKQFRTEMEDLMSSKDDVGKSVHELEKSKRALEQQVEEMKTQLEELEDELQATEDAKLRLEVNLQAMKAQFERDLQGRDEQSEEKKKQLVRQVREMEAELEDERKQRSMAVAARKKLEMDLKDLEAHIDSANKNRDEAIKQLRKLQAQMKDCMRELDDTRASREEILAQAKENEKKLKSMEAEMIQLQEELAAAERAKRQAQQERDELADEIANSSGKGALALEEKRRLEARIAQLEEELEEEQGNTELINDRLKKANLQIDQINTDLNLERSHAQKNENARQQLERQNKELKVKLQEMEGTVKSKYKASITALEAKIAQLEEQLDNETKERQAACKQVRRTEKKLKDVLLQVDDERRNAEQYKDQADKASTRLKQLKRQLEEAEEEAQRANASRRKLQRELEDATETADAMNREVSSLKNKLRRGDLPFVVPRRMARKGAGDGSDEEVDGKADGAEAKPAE
# NELFA, Q9H3P2, UniProt Q9H3P2, whole entry: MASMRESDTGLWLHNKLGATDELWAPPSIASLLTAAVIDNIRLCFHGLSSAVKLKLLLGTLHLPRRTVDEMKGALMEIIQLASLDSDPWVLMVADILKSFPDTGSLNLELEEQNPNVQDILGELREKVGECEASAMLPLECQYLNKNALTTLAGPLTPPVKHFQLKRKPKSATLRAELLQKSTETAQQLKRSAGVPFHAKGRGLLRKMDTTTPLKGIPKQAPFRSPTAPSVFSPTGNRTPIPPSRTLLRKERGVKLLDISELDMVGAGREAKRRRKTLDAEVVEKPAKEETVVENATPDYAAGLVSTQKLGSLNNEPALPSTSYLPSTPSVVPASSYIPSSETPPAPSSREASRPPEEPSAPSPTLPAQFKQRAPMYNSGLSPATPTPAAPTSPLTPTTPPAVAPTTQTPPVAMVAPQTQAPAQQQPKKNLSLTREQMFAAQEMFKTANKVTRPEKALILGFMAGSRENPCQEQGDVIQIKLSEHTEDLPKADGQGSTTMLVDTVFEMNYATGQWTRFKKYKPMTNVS
# This is one part of the list. The list holds hits alone, and they repeat only in part.
# How the values were obtained:
# Assay in all cases: PRISMA enrichment of interactor (LFQ) in peptide spot vs all other peptide spots (log2 fold change); higher = stronger / more specific binding of the interactor to the peptide
# NDUFAF7, Q7L592 = molecular target: NDUFAF7, Q7L592
# Protocol: (§1)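 PRISMA: 15-aa overlapping tiles (offset 8 aa) of 60 microproteins, plus SOS1/GLUT1 control peptides, were spot-synthesized on cellulose membranes in triplicate. Membranes were incubated with benzonase-treated HEK293T lysate, and bound proteins were identified by LC-MS/MS with LFQ. Enrichment is the log2 fold change of each protein in one spot versus all other spots. Only interactors passing the significance cutoff are listed.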
# NIFK, Q9BYG3 = molecular target: NIFK, Q9BYG3
# Protocol: as §1
# NME4, O00746 = molecular target: NME4, O00746
# Protocol: as §1
# NOL7, Q9UMY1 = molecular target: NOL7, Q9UMY1
# Protocol: as §1
# [1] = substrate: NONO, Q15233
# Protocol: as §1
# NTHL1, P78549 = molecular target: NTHL1, P78549
# Protocol: as §1
# NUSAP1, Q9BXS6 = molecular target: NUSAP1, Q9BXS6
# Protocol: as §1
# PAK1IP1, Q9NWT1 = molecular target: PAK1IP1, Q9NWT1
# Protocol: as §1
# PDF, Q9HBH1 = molecular target: PDF, Q9HBH1
# Protocol: as §1
# PHF6, Q8IWS0 = molecular target: PHF6, Q8IWS0
# Protocol: as §1
# PIN4, Q9Y237 = molecular target: PIN4, Q9Y237
# Protocol: as §1
# PPAN-P2RY11 = molecular target: PPAN-P2RY11
# Protocol: as §1
# RBM34, P42696 = molecular target: RBM34, P42696
# Protocol: as §1
# RBMX, P38159 = molecular target: RBMX, P38159
# Protocol: as §1
# RBMXL1, Q96E39 = molecular target: RBMXL1, Q96E39
# Protocol: as §1
# REXO4, Q9GZR2 = molecular target: REXO4, Q9GZR2
# Protocol: as §1
# RPS19BP1, Q86WX3 = molecular target: RPS19BP1, Q86WX3
# Protocol: as §1
# RRP1, P56182 = molecular target: RRP1, P56182
# Protocol: as §1
# SERF2, P84101 = molecular target: SERF2, P84101
# Protocol: as §1
# SFPQ, P23246 = molecular target: SFPQ, P23246
# Protocol: as §1
# SGPL1, O95470 = molecular target: SGPL1, O95470
# Protocol: as §1
# SHMT2, P34897 = molecular target: SHMT2, P34897
# Protocol: as §1
# SRP14, P37108 = molecular target: SRP14, P37108
# Protocol: as §1
# TFAM, Q00059 = molecular target: TFAM, Q00059
# Protocol: as §1
# TMA16, Q96EY4 = molecular target: TMA16, Q96EY4
# Protocol: as §1
# UBE2I, P63279 = molecular target: UBE2I, P63279
# Protocol: as §1
# UFC1, Q9Y3C8 = molecular target: UFC1, Q9Y3C8
# Protocol: as §1
# UFM1, P61960 = molecular target: UFM1, P61960
# Protocol: as §1
# VRK1, Q99986 = molecular target: VRK1, Q99986
# Protocol: as §1
# ZC3H15, Q8WU90 = molecular target: ZC3H15, Q8WU90
# Protocol: as §1
# ZNF22, P17026 = molecular target: ZNF22, P17026
# Protocol: as §1
# ZNF768, Q9H5H4 = molecular target: ZNF768, Q9H5H4
# Protocol: as §1
# hCG_2014768 = molecular target: hCG_2014768
# Protocol: as §1
# ABCF1, Q8NE71 = molecular target: ABCF1, Q8NE71
# Protocol: as §1
# ACACA, Q13085 = molecular target: ACACA, Q13085
# Protocol: as §1
# AHSG, P02765 = molecular target: AHSG, P02765
# Protocol: as §1
# APEX1, P27695 = molecular target: APEX1, P27695
# Protocol: as §1
# ASPH, Q12797 = molecular target: ASPH, Q12797
# Protocol: as §1
# BSG, P35613 = molecular target: BSG, P35613
# Protocol: as §1
# BUB1B, O60566 = molecular target: BUB1B, O60566
# Protocol: as §1
# CENPE, Q02224 = molecular target: CENPE, Q02224
# Protocol: as §1
# CHD4, Q14839 = molecular target: CHD4, Q14839
# Protocol: as §1
# DCTN1, Q14203 = molecular target: DCTN1, Q14203
# Protocol: as §1
# DDX28, Q9NUL7 = molecular target: DDX28, Q9NUL7
# Protocol: as §1
# DNTTIP2, Q5QJE6 = molecular target: DNTTIP2, Q5QJE6
# Protocol: as §1
# DSTN, P60981 = molecular target: DSTN, P60981
# Protocol: as §1
# EWSR1, Q01844 = molecular target: EWSR1, Q01844
# Protocol: as §1
# FAM98B, Q52LJ0 = molecular target: FAM98B, Q52LJ0
# Protocol: as §1
# GPI, P06744 = molecular target: GPI, P06744
# Protocol: as §1
# GPN1, Q9HCN4 = molecular target: GPN1, Q9HCN4
# Protocol: as §1
# HERC5, Q9UII4 = molecular target: HERC5, Q9UII4
# Protocol: as §1
# HIST1H1E, P10412 = molecular target: HIST1H1E, P10412
# Protocol: as §1
# HMGA2, P52926 = molecular target: HMGA2, P52926
# Protocol: as §1
# KNOP1, Q1ED39 = molecular target: KNOP1, Q1ED39
# Protocol: as §1
# MAPK1, P28482 = molecular target: MAPK1, P28482
# Protocol: as §1
# MCMBP, Q9BTE3 = molecular target: MCMBP, Q9BTE3
# Protocol: as §1
# MCRIP1, C9JLW8 = molecular target: MCRIP1, C9JLW8
# Protocol: as §1
# MMTAG2, Q9BU76 = molecular target: MMTAG2, Q9BU76
# Protocol: as §1
# MSH6, P52701 = molecular target: MSH6, P52701
# Protocol: as §1
# MYH9, P35579 = molecular target: MYH9, P35579
# Protocol: as §1
# NELFA, Q9H3P2 = molecular target: NELFA, Q9H3P2
# Protocol: as §1
# NIP7, Q9Y221 = molecular target: NIP7, Q9Y221
# Protocol: as §1
# NUFIP2, Q7Z417 = molecular target: NUFIP2, Q7Z417
# Protocol: as §1
binder,measurement,setting,value
YWLLEGGDSEDKEDA [CRNDE],PRISMA enrichment of interactor (log2),"NDUFAF7, Q7L592",3.44
same,PRISMA enrichment of interactor (log2),"NIFK, Q9BYG3",4.87
same,PRISMA enrichment of interactor (log2),"NME4, O00746",3.76
same,PRISMA enrichment of interactor (log2),"NOL7, Q9UMY1",3.75
same,PRISMA enrichment of interactor (log2),[1],3.23
same,PRISMA enrichment of interactor (log2),"NTHL1, P78549",3.54
same,PRISMA enrichment of interactor (log2),"NUSAP1, Q9BXS6",3.57
same,PRISMA enrichment of interactor (log2),"PAK1IP1, Q9NWT1",3.69
same,PRISMA enrichment of interactor (log2),"PDF, Q9HBH1",3.49
same,PRISMA enrichment of interactor (log2),"PHF6, Q8IWS0",3.54
same,PRISMA enrichment of interactor (log2),"PIN4, Q9Y237",6.83
same,PRISMA enrichment of interactor (log2),PPAN-P2RY11,3.82
same,PRISMA enrichment of interactor (log2),"RBM34, P42696",4.33
same,PRISMA enrichment of interactor (log2),"RBMX, P38159",4.6
same,PRISMA enrichment of interactor (log2),"RBMXL1, Q96E39",4.37
same,PRISMA enrichment of interactor (log2),"REXO4, Q9GZR2",4.48
same,PRISMA enrichment of interactor (log2),"RPS19BP1, Q86WX3",4.06
same,PRISMA enrichment of interactor (log2),"RRP1, P56182",4.12
same,PRISMA enrichment of interactor (log2),"SERF2, P84101",5.57
same,PRISMA enrichment of interactor (log2),"SFPQ, P23246",4
same,PRISMA enrichment of interactor (log2),"SGPL1, O95470",3.67
same,PRISMA enrichment of interactor (log2),"SHMT2, P34897",4.61
same,PRISMA enrichment of interactor (log2),"SRP14, P37108",4.53
same,PRISMA enrichment of interactor (log2),"TFAM, Q00059",3.98
same,PRISMA enrichment of interactor (log2),"TMA16, Q96EY4",3.38
same,PRISMA enrichment of interactor (log2),"UBE2I, P63279",4.02
same,PRISMA enrichment of interactor (log2),"UFC1, Q9Y3C8",3.38
same,PRISMA enrichment of interactor (log2),"UFM1, P61960",3.7
same,PRISMA enrichment of interactor (log2),"VRK1, Q99986",4.64
same,PRISMA enrichment of interactor (log2),"ZC3H15, Q8WU90",3.59
same,PRISMA enrichment of interactor (log2),"ZNF22, P17026",3.74
same,PRISMA enrichment of interactor (log2),"ZNF768, Q9H5H4",4.62
same,PRISMA enrichment of interactor (log2),hCG_2014768,5.09
EVLKSKPNSSHWHTG [GAS5],PRISMA enrichment of interactor (log2),"ABCF1, Q8NE71",5.13
same,PRISMA enrichment of interactor (log2),"ACACA, Q13085",5.53
same,PRISMA enrichment of interactor (log2),"AHSG, P02765",3.7
same,PRISMA enrichment of interactor (log2),"APEX1, P27695",6.1
same,PRISMA enrichment of interactor (log2),"ASPH, Q12797",3.6
same,PRISMA enrichment of interactor (log2),"BSG, P35613",4.2
same,PRISMA enrichment of interactor (log2),"BUB1B, O60566",5.13
same,PRISMA enrichment of interactor (log2),"CENPE, Q02224",4.22
same,PRISMA enrichment of interactor (log2),"CHD4, Q14839",5.17
same,PRISMA enrichment of interactor (log2),"DCTN1, Q14203",5.44
same,PRISMA enrichment of interactor (log2),"DDX28, Q9NUL7",6.29
same,PRISMA enrichment of interactor (log2),"DNTTIP2, Q5QJE6",4.6
same,PRISMA enrichment of interactor (log2),"DSTN, P60981",7.14
same,PRISMA enrichment of interactor (log2),"EWSR1, Q01844",5.87
same,PRISMA enrichment of interactor (log2),"FAM98B, Q52LJ0",7.4
same,PRISMA enrichment of interactor (log2),"GPI, P06744",4.64
same,PRISMA enrichment of interactor (log2),"GPN1, Q9HCN4",4.9
same,PRISMA enrichment of interactor (log2),"HERC5, Q9UII4",5.29
same,PRISMA enrichment of interactor (log2),"HIST1H1E, P10412",5.36
same,PRISMA enrichment of interactor (log2),"HMGA2, P52926",3.94
same,PRISMA enrichment of interactor (log2),"KNOP1, Q1ED39",5.03
same,PRISMA enrichment of interactor (log2),"MAPK1, P28482",6.8
same,PRISMA enrichment of interactor (log2),"MCMBP, Q9BTE3",4.9
same,PRISMA enrichment of interactor (log2),"MCRIP1, C9JLW8",3.92
same,PRISMA enrichment of interactor (log2),"MMTAG2, Q9BU76",4.7
same,PRISMA enrichment of interactor (log2),"MSH6, P52701",5.39
same,PRISMA enrichment of interactor (log2),"MYH9, P35579",5.67
same,PRISMA enrichment of interactor (log2),"NELFA, Q9H3P2",4.39
same,PRISMA enrichment of interactor (log2),"NIP7, Q9Y221",4.18
same,PRISMA enrichment of interactor (log2),"NUFIP2, Q7Z417",4.93

# Laid out differently: entries from further up
binder	measurement	setting	value
YWLLEGGDSEDKEDA [CRNDE]	PRISMA enrichment of interactor (log2)	RRP1, P56182	4.12
EVLKSKPNSSHWHTG [GAS5]	PRISMA enrichment of interactor (log2)	ABCF1, Q8NE71	5.13
same	PRISMA enrichment of interactor (log2)	FAM98B, Q52LJ0	7.4
same	PRISMA enrichment of interactor (log2)	GPI, P06744	4.64
